These are yes or no findings as the source states them, for the method shown. Some entries that bind do so weakly or less than the wild type. Where a sequence is shown, tags or fusion partners need not be part of it.
Legend:
[1] = target: T1, prenylated Vps21 (yeast) (UniProt P36017); test: co-sedimentation
T1 sequence (chain, prenylated (geranylgeranylpyrophosphate, Bet2/Bet4)): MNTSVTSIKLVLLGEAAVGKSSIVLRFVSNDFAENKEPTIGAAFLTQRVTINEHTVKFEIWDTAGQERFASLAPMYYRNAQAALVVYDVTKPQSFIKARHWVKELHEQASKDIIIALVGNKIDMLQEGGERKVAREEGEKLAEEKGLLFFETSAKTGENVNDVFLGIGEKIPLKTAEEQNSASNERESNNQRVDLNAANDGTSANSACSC

[2] = target: T2, prenylated Ypt10 (yeast) (UniProt P38146); test: co-sedimentation
T2 sequence (chain, prenylated (geranylgeranylpyrophosphate, Bet2/Bet4)): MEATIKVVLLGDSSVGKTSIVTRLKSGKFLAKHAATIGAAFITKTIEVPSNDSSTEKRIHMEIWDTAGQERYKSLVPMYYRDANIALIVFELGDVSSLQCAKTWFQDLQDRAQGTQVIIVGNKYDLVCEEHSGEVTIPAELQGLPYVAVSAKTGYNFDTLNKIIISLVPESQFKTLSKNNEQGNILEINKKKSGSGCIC

B1: Mon1-Ccz1 complex from Saccharomyces cerevisiae (complex, UniProt P53129;P38273)
chain 1: MNLNESYLDAEIPKGQLKHSKSGNFEGIPIVATTSEPTTSVNLDETFFKKAPIAMPICDDHSVSKSTSVNSLNTTSLASRRSPLQTKKLQAKNNLLSADLAKSNDDTTRALNSPKKDFGPYLDSENDIRSRLAESIYSMETSIRGSELQRRPYVSNEIPNVFKFSKFNSNCKLNESQTLCDKNFFIFTSAGKPIYCMHGKDEQIMSYTGLVNTVISYFQVNGPSELKTISTLTSGKRLTFLDKSPILLMAQSERGESSNELLNQLDFLYSYILSSLSERQLLRLFSKRENFDLRNYLESTDFENLDEICSLICNRMFPDLLLNSLQCLPFNHSSRLKLQNVVLQQLEKRQDIPRGTLLYGLIIAPQNKLCCVLRPRGHTLHTTDLHLLFCLISHQFQNLDETQELWVPICFPKFNSSGFLYCYIKFLPNDTHSNEKSALVLISAQKDAFFSLKSFSDELIIKLEEEKLLKKINTSKGFKLSDIPAPMVHHFIYKSKQNVQYVMPHFEVNSNIALDSSQGLEYELKLKTYYQQLHGTVVRDNGNLLSRSMLNFVRWSSKDNEDLAMDETQMDFSELDEYIIGNSSFKQESVNMVGMAWVTPTFELYLIGNNGIVDKRVLFKSARKVANWCQKHESRLFISDGAVF
chain 2: MRLHYITVFDPSRSTNENDTFKQLLLFHYFGTTDSIPSLNEKLSIIGVIQGIWSLTSSCVNKDGEDLEKIIELNNDIIFCIKVESRFFISLAISNISDDQSAIPLQYLSAYLWLSYRFFKLLNGSFSGFNKDFRKLTDLLNEFVIPFWNDIYLNLETVTNRSFTVMWPGFYKRANFQHSSYNPGEKNNVEESWDAIILQNILLDKKSYLGLKDILVYHLPKRTKAANRESMGTKTYGLVRNFTSDLNTLPDISNWLYHLHCTYGEISSHILTGNVHFKEELQVEEEQERSRDTNGRDEEESQEQQRREHQETTQNNTSELSLSERVIHNVTLPISFAYDAIHEVSTTTGVSGSLSMIMDYVPKPHWPFISSSNKSADKNNYSNSNDNANSNAPLMAQSEAVGGTIGNSRFGFLISPLNSDLLPSSYQALKLNLNFENSKDKEDFYNCLFWYFDDFLIVIVCDPDFNKICERDYLKDLSFQLCQSMECLNNEILNSQNCDNVESFAYVIRDNVTKEIDSSVPFGSPKFTSDESISTLQLAINGIDQFINDNSNSLSLANWNPITIMGGSNAISKKNTTEGFGNGVNDKTQKFKRKYLNFLNLMSAEKLWDLQVDVLQFLTSLQNSKRDPDYFQEERLLKLNNGVLCYIKENNSNLIIIIKNWFQNNGTSKAAKQRNRFSSDSSKGSSLFQSLGRDVTDWWESREI
binding [1]: binds weakly | binding [2]: binds weakly

— publication doi:10.1101/2022.08.14.503906
